Measured values: the supplement of paper PMC10849652
Some of the results follow.

The chains behind the UniProt entries cited, without tags or fusion partners. Where a name states a change or a piece, a line headed by the entry shows the natural chain unless it says otherwise.
UniProt Q00613: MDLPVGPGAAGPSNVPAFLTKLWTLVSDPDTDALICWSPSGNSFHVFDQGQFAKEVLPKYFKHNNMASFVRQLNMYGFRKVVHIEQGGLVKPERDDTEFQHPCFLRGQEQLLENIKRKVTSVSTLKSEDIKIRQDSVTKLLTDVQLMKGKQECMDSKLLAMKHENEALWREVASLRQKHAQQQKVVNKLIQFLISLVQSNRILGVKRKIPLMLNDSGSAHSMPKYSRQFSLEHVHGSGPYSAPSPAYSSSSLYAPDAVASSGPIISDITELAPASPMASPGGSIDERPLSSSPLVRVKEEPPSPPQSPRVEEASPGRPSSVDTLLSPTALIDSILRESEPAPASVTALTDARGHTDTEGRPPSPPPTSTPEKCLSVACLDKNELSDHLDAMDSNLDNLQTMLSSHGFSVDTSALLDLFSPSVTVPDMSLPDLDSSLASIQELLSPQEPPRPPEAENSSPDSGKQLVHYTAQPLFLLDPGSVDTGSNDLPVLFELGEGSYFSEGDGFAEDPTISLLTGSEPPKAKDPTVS
UniProt Q9NSC5: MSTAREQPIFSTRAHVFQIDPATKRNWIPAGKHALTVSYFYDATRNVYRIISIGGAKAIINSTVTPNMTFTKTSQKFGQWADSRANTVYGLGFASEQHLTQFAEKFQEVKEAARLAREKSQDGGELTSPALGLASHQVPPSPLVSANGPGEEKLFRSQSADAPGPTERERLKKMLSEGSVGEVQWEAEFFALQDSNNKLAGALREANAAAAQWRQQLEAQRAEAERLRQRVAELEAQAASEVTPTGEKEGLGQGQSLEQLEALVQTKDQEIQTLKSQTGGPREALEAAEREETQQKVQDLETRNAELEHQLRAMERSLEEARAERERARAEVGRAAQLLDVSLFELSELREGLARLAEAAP
UniProt P54652, whole entry, looked up: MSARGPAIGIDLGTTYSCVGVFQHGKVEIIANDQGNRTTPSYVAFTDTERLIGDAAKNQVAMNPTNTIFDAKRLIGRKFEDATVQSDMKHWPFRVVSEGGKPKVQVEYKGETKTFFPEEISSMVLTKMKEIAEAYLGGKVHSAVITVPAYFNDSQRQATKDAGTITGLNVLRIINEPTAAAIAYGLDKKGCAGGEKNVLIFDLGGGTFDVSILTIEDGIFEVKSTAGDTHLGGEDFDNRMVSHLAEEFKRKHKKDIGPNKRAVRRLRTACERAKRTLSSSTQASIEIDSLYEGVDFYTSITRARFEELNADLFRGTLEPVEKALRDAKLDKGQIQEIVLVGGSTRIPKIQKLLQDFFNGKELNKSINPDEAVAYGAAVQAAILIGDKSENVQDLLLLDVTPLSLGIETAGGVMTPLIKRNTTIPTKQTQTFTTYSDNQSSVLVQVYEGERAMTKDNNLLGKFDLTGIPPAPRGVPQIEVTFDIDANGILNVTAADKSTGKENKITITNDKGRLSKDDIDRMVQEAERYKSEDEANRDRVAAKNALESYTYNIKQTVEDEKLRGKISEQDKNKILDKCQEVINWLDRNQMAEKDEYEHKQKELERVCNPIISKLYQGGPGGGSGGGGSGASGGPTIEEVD
UniProt Q96FZ2: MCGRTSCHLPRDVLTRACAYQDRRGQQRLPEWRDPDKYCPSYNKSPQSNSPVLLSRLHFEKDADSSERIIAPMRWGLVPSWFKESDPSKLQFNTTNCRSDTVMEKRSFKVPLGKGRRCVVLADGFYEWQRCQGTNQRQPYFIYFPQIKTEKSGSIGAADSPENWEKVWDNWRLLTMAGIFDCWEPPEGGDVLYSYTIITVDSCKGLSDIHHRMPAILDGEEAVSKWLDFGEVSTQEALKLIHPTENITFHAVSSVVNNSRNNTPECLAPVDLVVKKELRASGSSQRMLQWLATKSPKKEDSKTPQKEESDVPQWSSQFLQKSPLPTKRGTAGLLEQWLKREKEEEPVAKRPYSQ
UniProt Q9P0W2: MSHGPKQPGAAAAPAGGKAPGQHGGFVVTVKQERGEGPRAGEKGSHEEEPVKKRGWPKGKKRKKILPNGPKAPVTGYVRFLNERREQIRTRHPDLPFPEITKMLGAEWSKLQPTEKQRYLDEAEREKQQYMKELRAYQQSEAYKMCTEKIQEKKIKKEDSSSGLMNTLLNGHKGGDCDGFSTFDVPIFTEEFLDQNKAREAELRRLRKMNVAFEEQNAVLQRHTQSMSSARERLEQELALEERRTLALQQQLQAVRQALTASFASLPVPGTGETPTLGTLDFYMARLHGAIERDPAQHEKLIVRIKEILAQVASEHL
UniProt Q9BW72: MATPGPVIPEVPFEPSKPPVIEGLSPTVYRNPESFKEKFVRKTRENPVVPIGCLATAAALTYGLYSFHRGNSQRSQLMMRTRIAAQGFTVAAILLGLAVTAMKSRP
UniProt P30939: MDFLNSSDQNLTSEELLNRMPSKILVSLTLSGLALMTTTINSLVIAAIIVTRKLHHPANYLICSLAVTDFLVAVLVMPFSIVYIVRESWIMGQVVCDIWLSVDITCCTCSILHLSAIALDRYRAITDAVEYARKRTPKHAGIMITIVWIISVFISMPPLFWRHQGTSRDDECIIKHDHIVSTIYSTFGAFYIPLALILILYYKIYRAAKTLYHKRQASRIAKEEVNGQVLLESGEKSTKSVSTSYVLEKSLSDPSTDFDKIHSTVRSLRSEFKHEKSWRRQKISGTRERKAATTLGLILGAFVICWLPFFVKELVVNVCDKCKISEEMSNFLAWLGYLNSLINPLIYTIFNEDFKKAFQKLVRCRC
UniProt Q9NWT6: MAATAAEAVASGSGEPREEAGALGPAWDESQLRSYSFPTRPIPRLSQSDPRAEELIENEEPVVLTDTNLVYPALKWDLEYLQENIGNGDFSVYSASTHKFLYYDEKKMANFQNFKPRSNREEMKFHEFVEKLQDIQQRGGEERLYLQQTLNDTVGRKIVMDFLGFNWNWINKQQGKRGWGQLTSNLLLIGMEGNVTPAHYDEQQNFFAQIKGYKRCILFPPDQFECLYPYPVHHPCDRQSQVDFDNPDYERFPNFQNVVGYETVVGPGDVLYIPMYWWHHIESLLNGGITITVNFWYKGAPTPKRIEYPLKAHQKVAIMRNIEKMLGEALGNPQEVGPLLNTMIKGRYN
UniProt Q05084: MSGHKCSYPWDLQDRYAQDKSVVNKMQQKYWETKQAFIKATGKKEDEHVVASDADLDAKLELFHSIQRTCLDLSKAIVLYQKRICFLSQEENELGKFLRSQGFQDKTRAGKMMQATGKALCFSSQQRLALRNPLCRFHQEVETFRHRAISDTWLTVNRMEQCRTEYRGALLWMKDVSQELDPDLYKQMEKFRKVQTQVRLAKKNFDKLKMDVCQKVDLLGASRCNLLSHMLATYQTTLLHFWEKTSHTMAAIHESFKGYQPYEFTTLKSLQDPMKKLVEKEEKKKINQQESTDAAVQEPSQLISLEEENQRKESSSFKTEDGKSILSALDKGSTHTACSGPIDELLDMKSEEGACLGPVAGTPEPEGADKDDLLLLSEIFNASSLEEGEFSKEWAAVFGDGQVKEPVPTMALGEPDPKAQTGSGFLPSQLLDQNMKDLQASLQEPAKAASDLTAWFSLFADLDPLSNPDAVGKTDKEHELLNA
UniProt Q659A1: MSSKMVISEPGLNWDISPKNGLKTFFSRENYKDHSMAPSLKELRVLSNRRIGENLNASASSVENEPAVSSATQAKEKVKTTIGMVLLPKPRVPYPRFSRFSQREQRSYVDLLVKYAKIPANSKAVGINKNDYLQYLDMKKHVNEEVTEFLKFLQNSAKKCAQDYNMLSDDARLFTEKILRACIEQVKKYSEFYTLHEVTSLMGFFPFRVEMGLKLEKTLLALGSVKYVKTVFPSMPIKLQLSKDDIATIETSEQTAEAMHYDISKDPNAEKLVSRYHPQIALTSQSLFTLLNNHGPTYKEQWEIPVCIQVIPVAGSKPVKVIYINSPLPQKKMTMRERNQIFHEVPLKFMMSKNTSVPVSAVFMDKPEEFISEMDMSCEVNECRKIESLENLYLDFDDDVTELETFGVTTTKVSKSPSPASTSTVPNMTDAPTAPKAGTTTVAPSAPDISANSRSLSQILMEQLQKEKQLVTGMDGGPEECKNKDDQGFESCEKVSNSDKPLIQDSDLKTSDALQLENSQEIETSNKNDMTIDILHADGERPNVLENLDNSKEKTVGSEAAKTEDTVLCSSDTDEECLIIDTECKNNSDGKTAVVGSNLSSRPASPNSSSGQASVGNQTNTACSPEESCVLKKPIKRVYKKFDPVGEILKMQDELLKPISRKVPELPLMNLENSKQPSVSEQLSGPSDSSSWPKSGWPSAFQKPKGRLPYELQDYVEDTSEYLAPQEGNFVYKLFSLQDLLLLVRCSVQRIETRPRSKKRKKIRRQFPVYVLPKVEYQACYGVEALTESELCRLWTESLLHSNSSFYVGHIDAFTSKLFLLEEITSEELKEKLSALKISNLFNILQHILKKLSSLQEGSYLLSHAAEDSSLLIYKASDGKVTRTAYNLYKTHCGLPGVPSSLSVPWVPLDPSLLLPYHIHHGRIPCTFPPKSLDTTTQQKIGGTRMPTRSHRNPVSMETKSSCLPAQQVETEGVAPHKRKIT
UniProt Q9NZL4: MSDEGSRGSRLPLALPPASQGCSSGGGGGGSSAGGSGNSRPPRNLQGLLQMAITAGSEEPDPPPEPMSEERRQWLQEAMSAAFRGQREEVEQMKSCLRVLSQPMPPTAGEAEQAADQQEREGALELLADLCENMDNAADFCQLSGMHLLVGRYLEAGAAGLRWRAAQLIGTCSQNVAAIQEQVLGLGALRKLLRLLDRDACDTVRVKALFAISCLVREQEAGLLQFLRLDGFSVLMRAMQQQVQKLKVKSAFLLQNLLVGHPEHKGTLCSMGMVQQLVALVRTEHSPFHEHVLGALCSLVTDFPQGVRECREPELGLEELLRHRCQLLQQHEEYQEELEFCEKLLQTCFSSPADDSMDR
UniProt P17483: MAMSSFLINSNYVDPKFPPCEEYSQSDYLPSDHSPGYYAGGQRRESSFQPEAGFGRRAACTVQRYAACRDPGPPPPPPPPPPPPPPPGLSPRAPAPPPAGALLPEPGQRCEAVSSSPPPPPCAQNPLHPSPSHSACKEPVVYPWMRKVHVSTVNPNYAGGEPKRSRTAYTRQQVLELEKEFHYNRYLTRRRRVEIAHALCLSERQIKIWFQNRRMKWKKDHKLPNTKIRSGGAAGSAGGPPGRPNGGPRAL
UniProt P41134: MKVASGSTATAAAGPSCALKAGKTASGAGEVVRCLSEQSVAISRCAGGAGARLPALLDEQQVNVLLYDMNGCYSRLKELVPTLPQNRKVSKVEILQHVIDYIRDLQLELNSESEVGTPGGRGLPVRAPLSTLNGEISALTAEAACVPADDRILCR
UniProt Q9UGU5: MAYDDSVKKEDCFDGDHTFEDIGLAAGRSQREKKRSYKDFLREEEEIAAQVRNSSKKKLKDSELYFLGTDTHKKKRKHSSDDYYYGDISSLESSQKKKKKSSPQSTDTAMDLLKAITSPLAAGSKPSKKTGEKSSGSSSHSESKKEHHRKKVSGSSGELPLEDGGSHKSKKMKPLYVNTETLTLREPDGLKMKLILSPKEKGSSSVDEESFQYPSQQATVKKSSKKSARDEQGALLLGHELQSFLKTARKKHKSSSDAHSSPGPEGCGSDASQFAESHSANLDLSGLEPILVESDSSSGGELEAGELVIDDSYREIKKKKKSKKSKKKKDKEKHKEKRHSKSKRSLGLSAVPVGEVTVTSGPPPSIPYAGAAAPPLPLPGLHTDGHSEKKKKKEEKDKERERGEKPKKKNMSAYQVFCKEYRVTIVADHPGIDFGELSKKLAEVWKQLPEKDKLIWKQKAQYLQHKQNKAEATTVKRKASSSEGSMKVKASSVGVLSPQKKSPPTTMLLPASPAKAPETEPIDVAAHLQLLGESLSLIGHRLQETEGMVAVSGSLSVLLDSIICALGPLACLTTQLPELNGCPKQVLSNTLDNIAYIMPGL
UniProt Q9UJC3, whole entry, looked up: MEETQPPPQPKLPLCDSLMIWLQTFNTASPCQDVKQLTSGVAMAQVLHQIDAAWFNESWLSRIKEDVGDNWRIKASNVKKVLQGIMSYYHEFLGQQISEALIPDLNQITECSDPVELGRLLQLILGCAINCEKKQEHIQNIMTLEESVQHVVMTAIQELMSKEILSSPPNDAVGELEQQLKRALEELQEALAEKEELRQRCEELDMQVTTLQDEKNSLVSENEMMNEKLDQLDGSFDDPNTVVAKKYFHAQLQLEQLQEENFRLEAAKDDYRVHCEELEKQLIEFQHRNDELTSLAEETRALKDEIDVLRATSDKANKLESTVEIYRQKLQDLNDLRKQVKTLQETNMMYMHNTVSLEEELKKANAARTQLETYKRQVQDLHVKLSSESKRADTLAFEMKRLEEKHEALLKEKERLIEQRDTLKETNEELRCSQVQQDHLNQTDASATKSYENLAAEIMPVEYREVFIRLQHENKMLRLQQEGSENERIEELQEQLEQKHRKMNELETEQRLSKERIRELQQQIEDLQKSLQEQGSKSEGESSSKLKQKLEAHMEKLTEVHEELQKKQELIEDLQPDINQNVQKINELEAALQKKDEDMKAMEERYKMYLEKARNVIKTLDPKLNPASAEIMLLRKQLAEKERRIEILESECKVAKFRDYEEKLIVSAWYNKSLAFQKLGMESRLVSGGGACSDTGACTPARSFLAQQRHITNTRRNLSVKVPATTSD

compound: CS(=O)(=O)c1ccc(-c2cnc(N)c(C(=O)Nc3ccccc3)n2)cc1; assay: log2 fold change, soluble protein after heating vs DMSO (PISA); higher = thermal stabilisation; K562 cells, 10 uM, 30 min; active = over 0.2 and 3.5 SD of the protein, either way, in both replicates (recomputed)
How it was run: (§1)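 Aliquots of K562 cells (2×10^6 cells/mL) treated with 10 μM compound for 30 min were heated for 3 min over 48°C-58°C. After pooling and extraction in PBS with 0.5% NP-40 at 4°C, soluble protein from a 21,000xg, 90 min spin was quantified by TMTpro 16plex LC-MS/MS with channel sums equalised. Thermal stability is expressed against control samples, from duplicates, as a log2 fold change.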

| Target | log2 fold change |
| --- | --- |
| HPS1 (UniProt Q92902) | inactive: -0.03 |
| HMBS (UniProt F5H226) | inactive: 0.672 |
| HMGN5 (UniProt Q5JSK9) | inactive: 0.082 |
| HSF1 (UniProt Q00613) | inactive: -0.009 |
| HOMER3 (UniProt Q9NSC5) | inactive: -0.031 |
| HSPA2 (UniProt P54652) | inactive: 0.011 |
| HNRNPUL1 (UniProt M0R247) | inactive: -0.057 |
| HMCES (UniProt Q96FZ2) | inactive: 0.094 |
| HYOU1, A0A494C039 | inactive: 0.038 |
| HIGD1A isoform 2 (UniProt Q9Y241) | inactive: 0.182 |
| HUWE1 isoform 2 (UniProt Q7Z6Z7) | inactive: -0.344 |
| HTD2 (UniProt P86397) | inactive: 0.026 |

compound: C[C@@H](Oc1cc(-c2cnn(C3CCNCC3)c2)cnc1N)c1c(Cl)ccc(F)c1Cl [crizotinib]; assay: as above
How it was run: as §1

| Target | log2 fold change |
| --- | --- |
| HMG20B (UniProt Q9P0W2) | inactive: 0.008 |
| HIGD2A (UniProt Q9BW72) | inactive: 0.086 |
| HSPBAP1 (UniProt Q96EW2) | inactive: 0.077 |
| HOOK2 (UniProt Q96ED9) | inactive: 0.038 |
| HMBS (UniProt F5H226) | inactive: -0.189 |
| HPS4 isoform 4 (UniProt Q9NQG7) | inactive: 0.056 |
| HTR1F (UniProt P30939) | inactive: -0.028 |
| HSPA2 (UniProt P54652) | inactive: 0.123 |
| HNRNPUL1 (UniProt M0R247) | inactive: 0.151 |
| HIF1AN (UniProt Q9NWT6) | inactive: 0.158 |
| HIGD1A isoform 2 (UniProt Q9Y241) | inactive: 0.25 |
| ICA1 isoform 2 (UniProt Q05084) | inactive: -0.092 |
| HIST2H2AA3 (UniProt Q6FI13) | inactive: -0.195 |

compound: C[C@@H]1COCCN1C2=NC(=NC(=C2)C3(CC3)S(=O)(=O)C)C4=C5C=CNC5=CC=C4; assay: as above
How it was run: as §1

| Target | log2 fold change |
| --- | --- |
| ICE2 (UniProt Q659A1) | inactive: 0.052 |
| HIGD2A (UniProt Q9BW72) | inactive: 0.097 |
| HOOK2 (UniProt Q96ED9) | inactive: -0.082 |
| HMGN5 (UniProt Q5JSK9) | inactive: 0.15 |
| HSPBP1 (UniProt Q9NZL4) | inactive: -0.05 |
| HOXB4 (UniProt P17483) | inactive: -0.117 |
| HSF1 (UniProt Q00613) | inactive: 0.103 |
| ID1 (UniProt P41134) | inactive: 0.107 |
| HMGXB4 (UniProt Q9UGU5) | inactive: 0.081 |
| HMCES (UniProt Q96FZ2) | inactive: 0.203 |
| HYOU1, A0A494C039 | inactive: -0.149 |
| HOMER2 (UniProt Q9NSB8) | inactive: -0.357 |
| HPF1 (UniProt Q9NWY4) | inactive: -0.119 |
| HIF1AN (UniProt Q9NWT6) | inactive: -0.023 |
| HOOK1 (UniProt Q9UJC3) | inactive: -0.268 |
| ICA1 isoform 2 (UniProt Q05084) | inactive: 0.074 |
| HTD2 (UniProt P86397) | inactive: 0.392 |
| HIST2H2AA3 (UniProt Q6FI13) | inactive: -0.513 |
